Measurements as given in paper PMC8649957.
Results are given in words; binding and its absence hold for the method and conditions named. Binding can be weak; no strength is given. For some of these results: In cells and extracts the contact can be indirect.

The chains behind the UniProt entries cited, without tags or fusion partners. Where a name states a change or a piece, a line headed by the entry shows the natural chain unless it says otherwise.
UniProt Q9XEE2: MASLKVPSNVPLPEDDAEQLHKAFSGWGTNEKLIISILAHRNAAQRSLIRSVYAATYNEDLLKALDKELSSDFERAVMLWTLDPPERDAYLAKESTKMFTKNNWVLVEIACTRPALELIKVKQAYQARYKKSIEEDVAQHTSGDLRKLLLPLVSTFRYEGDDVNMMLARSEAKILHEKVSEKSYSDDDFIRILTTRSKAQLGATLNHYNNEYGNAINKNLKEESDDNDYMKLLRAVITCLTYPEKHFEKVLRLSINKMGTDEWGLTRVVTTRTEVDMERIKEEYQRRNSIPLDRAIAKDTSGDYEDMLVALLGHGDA
UniProt Q9SE45: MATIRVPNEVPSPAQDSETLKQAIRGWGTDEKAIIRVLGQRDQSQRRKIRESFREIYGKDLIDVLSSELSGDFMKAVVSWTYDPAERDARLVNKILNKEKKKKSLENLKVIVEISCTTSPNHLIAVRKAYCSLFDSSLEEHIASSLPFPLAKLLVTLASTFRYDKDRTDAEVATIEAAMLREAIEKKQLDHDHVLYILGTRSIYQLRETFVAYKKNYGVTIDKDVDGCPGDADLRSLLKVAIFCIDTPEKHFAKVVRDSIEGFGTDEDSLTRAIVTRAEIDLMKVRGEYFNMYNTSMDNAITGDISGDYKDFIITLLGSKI
UniProt Q96524: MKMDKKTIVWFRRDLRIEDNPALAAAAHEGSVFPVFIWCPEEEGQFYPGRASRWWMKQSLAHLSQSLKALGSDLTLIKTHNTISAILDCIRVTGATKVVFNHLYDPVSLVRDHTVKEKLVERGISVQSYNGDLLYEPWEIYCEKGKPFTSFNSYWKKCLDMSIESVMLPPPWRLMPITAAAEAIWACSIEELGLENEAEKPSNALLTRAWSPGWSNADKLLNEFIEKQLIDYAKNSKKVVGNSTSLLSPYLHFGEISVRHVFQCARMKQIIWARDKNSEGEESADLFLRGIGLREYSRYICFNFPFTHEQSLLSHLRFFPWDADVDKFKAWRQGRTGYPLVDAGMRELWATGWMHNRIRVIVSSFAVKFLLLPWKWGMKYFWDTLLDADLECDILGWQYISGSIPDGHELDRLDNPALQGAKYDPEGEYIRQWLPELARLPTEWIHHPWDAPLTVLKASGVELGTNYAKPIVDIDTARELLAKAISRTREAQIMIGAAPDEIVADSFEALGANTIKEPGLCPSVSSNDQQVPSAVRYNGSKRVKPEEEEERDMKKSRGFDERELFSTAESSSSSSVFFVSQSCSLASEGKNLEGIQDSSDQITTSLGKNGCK

How the values were obtained:
[1] = target: AtANN2-GST (Arabidopsis thaliana) (UniProt Q9XEE2); assay: pull-down; GST pull-down in vitro with purified proteins expressed in E. coli; analysed with anti-GST or anti-HIS antibodies; both purified
[2] = target: AtANN3-GST (Arabidopsis thaliana) (UniProt Q9SE45); assay: as above
[3] = target: AtANN3-YNE (Arabidopsis thaliana) (UniProt Q9SE45); assay: split reporter; BiFC with split YFP; the two plasmids co-transformed into Arabidopsis leaf cell protoplasts, incubated 16 h in the dark at 23°C; fluorescence microscopy
[4] = target: AtANN2-YNE (Arabidopsis thaliana) (UniProt Q9XEE2); assay: as above

binding [1] | binding [2] | binding [3] | binding [4] | Substance
binds | binds | – | – | AtCRY2-HIS (from UniProt Q96524 1-612)
– | – | binds | binds | AtCRY2-YCE (from UniProt Q96524 1-612)
